This note sets out measurements from the supplement of paper PMC10849652.

The chains behind the UniProt entries cited, without tags or fusion partners. Where a name states a change or a piece, a line headed by the entry shows the natural chain unless it says otherwise.
UniProt Q9ULH1: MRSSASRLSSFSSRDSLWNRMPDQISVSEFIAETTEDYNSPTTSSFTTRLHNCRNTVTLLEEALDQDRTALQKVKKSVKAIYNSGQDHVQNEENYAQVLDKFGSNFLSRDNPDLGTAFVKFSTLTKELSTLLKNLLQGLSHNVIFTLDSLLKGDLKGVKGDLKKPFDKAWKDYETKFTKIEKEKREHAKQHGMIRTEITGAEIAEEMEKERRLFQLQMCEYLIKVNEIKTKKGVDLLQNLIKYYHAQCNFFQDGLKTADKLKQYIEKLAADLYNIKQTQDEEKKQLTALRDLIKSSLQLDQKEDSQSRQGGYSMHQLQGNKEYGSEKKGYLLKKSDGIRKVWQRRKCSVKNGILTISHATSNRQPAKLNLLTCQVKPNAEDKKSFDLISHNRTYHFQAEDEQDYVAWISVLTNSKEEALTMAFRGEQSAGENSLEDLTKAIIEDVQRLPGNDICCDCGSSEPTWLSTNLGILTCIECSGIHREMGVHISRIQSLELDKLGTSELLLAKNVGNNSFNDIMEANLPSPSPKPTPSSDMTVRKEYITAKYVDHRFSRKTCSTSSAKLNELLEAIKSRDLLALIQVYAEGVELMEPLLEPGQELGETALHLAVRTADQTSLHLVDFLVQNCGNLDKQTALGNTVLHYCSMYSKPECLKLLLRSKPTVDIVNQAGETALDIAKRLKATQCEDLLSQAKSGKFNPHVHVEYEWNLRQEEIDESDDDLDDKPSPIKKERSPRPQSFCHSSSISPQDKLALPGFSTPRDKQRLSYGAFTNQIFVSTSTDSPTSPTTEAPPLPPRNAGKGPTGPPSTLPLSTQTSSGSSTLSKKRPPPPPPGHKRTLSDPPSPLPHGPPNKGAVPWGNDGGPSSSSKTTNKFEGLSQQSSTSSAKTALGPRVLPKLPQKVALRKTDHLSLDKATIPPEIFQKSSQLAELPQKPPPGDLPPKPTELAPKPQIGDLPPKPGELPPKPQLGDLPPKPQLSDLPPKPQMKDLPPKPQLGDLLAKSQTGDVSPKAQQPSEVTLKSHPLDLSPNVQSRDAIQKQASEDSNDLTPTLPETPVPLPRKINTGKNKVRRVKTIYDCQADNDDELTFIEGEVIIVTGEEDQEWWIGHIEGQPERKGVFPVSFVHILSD
UniProt O15013: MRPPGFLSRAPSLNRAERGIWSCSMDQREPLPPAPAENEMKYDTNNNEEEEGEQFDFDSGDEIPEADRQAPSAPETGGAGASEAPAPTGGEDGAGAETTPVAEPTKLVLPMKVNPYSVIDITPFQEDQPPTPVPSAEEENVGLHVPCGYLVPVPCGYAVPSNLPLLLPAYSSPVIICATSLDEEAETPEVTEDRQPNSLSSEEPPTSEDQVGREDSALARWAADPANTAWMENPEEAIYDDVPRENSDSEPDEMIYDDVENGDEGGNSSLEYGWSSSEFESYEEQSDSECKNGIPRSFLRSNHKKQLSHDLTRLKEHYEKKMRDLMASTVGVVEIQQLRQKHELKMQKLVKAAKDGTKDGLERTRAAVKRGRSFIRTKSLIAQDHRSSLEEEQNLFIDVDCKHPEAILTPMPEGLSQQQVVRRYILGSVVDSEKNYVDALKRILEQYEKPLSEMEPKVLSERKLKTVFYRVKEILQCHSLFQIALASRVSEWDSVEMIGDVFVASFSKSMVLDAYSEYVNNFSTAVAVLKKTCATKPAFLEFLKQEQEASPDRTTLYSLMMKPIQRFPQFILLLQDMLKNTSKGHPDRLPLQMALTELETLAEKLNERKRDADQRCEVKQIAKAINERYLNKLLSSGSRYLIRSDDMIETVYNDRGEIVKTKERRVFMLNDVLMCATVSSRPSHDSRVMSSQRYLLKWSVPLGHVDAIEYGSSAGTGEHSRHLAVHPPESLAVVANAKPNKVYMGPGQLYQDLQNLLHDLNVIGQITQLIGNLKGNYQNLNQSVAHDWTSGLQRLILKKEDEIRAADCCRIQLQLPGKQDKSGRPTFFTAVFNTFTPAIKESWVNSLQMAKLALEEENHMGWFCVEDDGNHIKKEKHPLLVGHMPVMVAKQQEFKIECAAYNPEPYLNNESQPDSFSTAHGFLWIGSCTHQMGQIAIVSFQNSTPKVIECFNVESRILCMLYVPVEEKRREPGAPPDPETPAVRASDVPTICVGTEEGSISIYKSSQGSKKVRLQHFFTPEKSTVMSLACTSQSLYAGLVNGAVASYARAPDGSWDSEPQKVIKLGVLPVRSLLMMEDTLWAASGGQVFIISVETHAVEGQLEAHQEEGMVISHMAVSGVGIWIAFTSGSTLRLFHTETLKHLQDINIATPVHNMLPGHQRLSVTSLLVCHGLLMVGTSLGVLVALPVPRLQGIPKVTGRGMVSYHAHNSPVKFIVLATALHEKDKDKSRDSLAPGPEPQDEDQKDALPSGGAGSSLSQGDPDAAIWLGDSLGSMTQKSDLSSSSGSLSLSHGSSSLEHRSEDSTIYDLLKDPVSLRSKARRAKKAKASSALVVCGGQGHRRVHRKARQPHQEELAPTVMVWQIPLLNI
UniProt Q7Z2E3: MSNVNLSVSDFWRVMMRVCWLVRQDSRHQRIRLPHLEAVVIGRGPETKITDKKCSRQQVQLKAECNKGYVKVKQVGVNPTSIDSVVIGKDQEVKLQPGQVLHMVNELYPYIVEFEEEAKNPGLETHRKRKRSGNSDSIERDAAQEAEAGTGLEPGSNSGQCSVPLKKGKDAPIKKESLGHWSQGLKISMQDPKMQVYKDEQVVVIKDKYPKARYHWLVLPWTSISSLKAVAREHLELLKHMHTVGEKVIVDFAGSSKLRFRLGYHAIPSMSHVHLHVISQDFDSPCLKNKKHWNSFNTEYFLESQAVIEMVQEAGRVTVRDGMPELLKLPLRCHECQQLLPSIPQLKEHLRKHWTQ
UniProt Q9Y587: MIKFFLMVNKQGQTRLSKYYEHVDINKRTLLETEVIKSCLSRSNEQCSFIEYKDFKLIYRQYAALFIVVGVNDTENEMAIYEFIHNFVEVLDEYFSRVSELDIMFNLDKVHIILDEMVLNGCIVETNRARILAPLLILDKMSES
UniProt Q9UKG1: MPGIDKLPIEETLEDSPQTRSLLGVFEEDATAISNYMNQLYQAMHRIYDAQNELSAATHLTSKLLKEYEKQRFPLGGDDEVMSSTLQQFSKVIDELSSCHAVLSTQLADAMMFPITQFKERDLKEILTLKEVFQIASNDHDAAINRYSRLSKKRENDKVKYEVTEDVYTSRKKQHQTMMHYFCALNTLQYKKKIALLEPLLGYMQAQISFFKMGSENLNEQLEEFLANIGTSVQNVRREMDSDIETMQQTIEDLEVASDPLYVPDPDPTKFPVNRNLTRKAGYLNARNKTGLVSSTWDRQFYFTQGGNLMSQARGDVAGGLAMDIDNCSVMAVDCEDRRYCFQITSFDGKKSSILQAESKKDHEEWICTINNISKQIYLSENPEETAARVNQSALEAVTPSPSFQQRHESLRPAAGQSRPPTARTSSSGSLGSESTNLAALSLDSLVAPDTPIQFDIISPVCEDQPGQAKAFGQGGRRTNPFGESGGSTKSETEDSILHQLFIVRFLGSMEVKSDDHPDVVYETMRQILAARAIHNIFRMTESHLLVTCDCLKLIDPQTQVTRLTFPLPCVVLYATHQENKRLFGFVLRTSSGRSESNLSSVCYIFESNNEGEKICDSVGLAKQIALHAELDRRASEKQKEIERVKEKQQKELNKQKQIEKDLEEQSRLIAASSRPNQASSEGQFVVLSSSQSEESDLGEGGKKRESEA
UniProt Q9Y6D6: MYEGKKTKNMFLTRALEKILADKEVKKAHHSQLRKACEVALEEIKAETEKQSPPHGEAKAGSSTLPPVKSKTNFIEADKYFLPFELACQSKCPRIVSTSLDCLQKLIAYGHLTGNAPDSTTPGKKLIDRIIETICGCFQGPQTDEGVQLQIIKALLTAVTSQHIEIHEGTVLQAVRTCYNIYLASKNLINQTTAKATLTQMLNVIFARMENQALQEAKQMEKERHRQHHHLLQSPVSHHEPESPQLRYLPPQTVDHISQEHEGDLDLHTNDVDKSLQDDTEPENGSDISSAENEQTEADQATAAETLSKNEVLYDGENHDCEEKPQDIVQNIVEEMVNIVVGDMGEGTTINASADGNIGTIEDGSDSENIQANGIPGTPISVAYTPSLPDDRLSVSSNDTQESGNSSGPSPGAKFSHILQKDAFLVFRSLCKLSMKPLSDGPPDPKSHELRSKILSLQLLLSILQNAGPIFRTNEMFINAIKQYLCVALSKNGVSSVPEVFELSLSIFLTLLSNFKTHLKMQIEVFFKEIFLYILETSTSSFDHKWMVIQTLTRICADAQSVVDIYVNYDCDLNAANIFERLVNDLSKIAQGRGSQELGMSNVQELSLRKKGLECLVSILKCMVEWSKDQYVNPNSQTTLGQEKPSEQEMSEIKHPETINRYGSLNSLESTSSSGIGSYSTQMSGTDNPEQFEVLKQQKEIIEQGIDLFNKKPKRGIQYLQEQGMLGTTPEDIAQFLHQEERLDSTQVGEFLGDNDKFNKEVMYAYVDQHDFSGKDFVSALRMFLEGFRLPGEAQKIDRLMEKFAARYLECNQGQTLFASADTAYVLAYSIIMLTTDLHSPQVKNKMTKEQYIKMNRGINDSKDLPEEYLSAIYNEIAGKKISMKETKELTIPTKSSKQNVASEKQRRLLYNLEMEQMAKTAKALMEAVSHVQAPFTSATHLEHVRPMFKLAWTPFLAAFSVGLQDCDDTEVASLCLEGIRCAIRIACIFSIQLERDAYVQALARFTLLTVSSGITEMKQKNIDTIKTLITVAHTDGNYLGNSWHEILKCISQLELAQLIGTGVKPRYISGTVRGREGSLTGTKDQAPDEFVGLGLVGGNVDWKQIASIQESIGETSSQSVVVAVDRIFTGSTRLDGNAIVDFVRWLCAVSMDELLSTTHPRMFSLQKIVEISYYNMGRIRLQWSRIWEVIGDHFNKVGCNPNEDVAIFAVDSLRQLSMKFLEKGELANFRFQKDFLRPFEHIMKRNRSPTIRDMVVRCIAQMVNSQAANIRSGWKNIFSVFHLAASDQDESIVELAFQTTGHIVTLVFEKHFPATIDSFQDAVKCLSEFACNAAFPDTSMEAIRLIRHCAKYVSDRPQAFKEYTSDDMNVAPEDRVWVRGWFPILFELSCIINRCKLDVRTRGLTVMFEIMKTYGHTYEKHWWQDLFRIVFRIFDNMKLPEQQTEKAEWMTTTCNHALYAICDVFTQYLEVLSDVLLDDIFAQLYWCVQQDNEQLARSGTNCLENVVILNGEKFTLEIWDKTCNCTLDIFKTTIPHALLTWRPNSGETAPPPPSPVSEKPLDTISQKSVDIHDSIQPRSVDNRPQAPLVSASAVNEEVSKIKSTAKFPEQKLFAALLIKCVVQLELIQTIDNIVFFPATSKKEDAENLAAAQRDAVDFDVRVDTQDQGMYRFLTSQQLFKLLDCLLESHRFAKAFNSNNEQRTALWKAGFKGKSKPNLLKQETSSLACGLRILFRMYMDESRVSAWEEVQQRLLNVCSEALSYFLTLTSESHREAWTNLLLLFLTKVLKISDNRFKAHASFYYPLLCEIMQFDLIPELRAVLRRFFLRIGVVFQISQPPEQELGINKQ
UniProt Q9H0R1: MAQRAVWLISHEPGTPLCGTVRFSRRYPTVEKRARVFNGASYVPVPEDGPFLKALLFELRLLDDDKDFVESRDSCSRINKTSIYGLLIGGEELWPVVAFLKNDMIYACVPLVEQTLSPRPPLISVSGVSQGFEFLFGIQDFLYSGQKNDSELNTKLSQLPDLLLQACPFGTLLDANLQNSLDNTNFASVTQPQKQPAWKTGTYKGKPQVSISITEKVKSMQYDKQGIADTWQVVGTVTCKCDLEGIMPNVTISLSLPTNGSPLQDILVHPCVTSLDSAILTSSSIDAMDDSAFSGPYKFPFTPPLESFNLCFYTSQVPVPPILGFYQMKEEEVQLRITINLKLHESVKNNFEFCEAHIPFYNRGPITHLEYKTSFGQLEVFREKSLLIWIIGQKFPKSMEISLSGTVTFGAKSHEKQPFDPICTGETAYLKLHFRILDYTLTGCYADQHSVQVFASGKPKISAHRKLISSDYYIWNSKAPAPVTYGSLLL
UniProt P02654: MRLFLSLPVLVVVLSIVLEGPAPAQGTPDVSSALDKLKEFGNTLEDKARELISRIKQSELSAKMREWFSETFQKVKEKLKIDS
UniProt P53367: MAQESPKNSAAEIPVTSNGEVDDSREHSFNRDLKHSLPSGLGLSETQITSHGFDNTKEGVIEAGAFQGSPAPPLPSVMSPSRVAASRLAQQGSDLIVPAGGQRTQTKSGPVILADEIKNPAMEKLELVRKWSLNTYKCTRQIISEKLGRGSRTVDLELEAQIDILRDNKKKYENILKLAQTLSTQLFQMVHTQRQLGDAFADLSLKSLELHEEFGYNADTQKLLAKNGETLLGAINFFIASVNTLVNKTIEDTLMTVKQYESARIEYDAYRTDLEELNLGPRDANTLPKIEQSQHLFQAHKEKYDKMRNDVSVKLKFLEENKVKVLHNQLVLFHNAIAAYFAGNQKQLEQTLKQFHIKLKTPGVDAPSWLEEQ

Some of the results follow.

Compound in one test: Cc1nc(Nc2ncc(C(=O)Nc3c(C)cccc3Cl)s2)cc(N2CCN(CCO)CC2)n1 [dasatinib]
As to the kind of experiment: log2 fold change, soluble protein after heating vs DMSO (PISA); higher = thermal stabilisation; K562 lysate, 10 uM; active = over 0.2 and 3.5 SD of the protein, either way, in both replicates (recomputed). The essentials:
(§1)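 Dounce homogenisation of K562 pellets in PBS pH 7.4 with 1 mM MgCl2 produced a crude extract, used at 1 mg/mL protein. Exposure to 10 μM compound lasted 30 min, and aliquots were then heated for 3 min across 48°C-58°C, pooled and brought to 0.5% NP-40 at 4°C. The supernatant after 21,000xg for 90 min was quantified by TMTpro 16plex LC-MS/MS with channel sums equalised. Duplicate values are given as log-two fold change in thermal stability relative to solvent controls.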
Turning to ASAP1 isoform 2 (UniProt Q9ULH1), the log2 fold change was inactive: 0.005.

As to APOBEC3G (UniProt Q9HC16), the log2 fold change was inactive: 0.061.

On to AP5Z1 (UniProt O43299), for which the log2 fold change is inactive: -0.08.

In the case of ARIH1 (UniProt Q9Y4X5), the log2 fold change is inactive: -0.044.

Take ARHGEF10 (UniProt O15013): the log2 fold change is inactive: -0.029.

On to APOOL (UniProt Q6UXV4), for which the log2 fold change is inactive: -0.014.

For ARFGEF2 (UniProt Q9Y6D5), the log2 fold change is inactive: -0.103.

On to ARRDC1 (UniProt Q8N5I2), for which the log2 fold change is inactive: 0.012.

Regarding ARID2 (UniProt Q68CP9), the log2 fold change was inactive: -0.023.

Consider ARV1 (UniProt Q9H2C2), for which the log2 fold change is inactive: 0.001.

On to APTX (UniProt Q7Z2E3), for which the log2 fold change is inactive: -0.037.

Consider APIP (UniProt Q96GX9), for which the log2 fold change was inactive: -0.019.

Consider ARMCX3 (UniProt Q9UH62), for which the log2 fold change was inactive: -0.107.

For the target ARSA (UniProt P15289), the log2 fold change is inactive: -0.022.

Consider ARHGAP18 (UniProt Q8N392), for which the log2 fold change was inactive: -0.047.

On to APLP2 (UniProt Q06481), for which the log2 fold change is inactive: -0.025.

Take AP4S1 (UniProt Q9Y587): the log2 fold change was inactive: 0.044.

Regarding ARL6IP1 (UniProt Q15041), the log2 fold change was inactive: -0.001.

As to ARHGAP5 (UniProt Q13017), the log2 fold change is inactive: -0.002.

Consider APPL1 (UniProt Q9UKG1), for which the log2 fold change was inactive: -0.01.

On to ARID1B isoform 3 (UniProt Q8NFD5), for which the log2 fold change was inactive: 0.02.

Take ARHGEF11 isoform 2 (UniProt O15085): the log2 fold change is inactive: 0.051.

Regarding ARFGEF1 (UniProt Q9Y6D6), the log2 fold change is inactive: -0.021.

Turning to ARID4B (UniProt Q4LE39), the log2 fold change is inactive: 0.005.

As to ARAF (UniProt P10398), the log2 fold change was inactive: 0.16.

In the case of APAF1 (UniProt O14727), the log2 fold change is inactive: -0.036.

ARFGAP3 (UniProt Q9NP61): the log2 fold change is inactive: 0.03.

ARHGAP21 (UniProt Q5T5U3): the log2 fold change was inactive: -0.039.

For the target APMAP (UniProt Q9HDC9), the log2 fold change was inactive: -0.01.

As for AP5M1 (UniProt Q9H0R1), the log2 fold change was inactive: -0.001.

Turning to APOBEC3C (UniProt Q9NRW3), the log2 fold change was inactive: -0.005.

With APOC1 (UniProt P02654), the log2 fold change was inactive: 0.039.

Turning to ARFIP1 (UniProt P53367), the log2 fold change is inactive: -0.002.

Compound in a further test: Cc1ncc(-c2ccnc(Nc3ccc(S(C)(=O)=O)cc3)n2)n1C(C)C
The test is described as above. An outline of the steps: as §1
Consider ASAP1 isoform 2 (UniProt Q9ULH1), for which the log2 fold change was inactive: -0.014.

On to APOBEC3G (UniProt Q9HC16), for which the log2 fold change was inactive: 0.007.

For AP5Z1 (UniProt O43299), the log2 fold change is inactive: 0.001.

In the case of ARIH1 (UniProt Q9Y4X5), the log2 fold change is inactive: 0.018.

Consider ARHGEF10 (UniProt O15013), for which the log2 fold change is inactive: -0.049.

Consider APOOL (UniProt Q6UXV4), for which the log2 fold change is inactive: 0.002.

For the target ARFGEF2 (UniProt Q9Y6D5), the log2 fold change was inactive: -0.005.

Turning to ARRDC1 (UniProt Q8N5I2), the log2 fold change is inactive: 0.27.

Turning to ARID2 (UniProt Q68CP9), the log2 fold change was inactive: -0.039.

With ARV1 (UniProt Q9H2C2), the log2 fold change is inactive: 0.001.

For the target APTX (UniProt Q7Z2E3), the log2 fold change was inactive: 0.009.

In the case of APIP (UniProt Q96GX9), the log2 fold change was inactive: -0.001.

ARMCX3 (UniProt Q9UH62): the log2 fold change was inactive: -0.003.

For ARSA (UniProt P15289), the log2 fold change was inactive: -0.052.

Consider ARHGAP18 (UniProt Q8N392), for which the log2 fold change is inactive: 0.024.

As to APLP2 (UniProt Q06481), the log2 fold change was inactive: -0.022.

Consider AP4S1 (UniProt Q9Y587), for which the log2 fold change is inactive: -0.068.

For ARL6IP1 (UniProt Q15041), the log2 fold change was inactive: 0.015.

As to ARHGAP5 (UniProt Q13017), the log2 fold change is inactive: 0.026.

Regarding APPL1 (UniProt Q9UKG1), the log2 fold change is inactive: -0.015.

Take ARID1B isoform 3 (UniProt Q8NFD5): the log2 fold change is inactive: -0.062.

With ARHGEF11 isoform 2 (UniProt O15085), the log2 fold change is inactive: 0.001.

ARFGEF1 (UniProt Q9Y6D6): the log2 fold change was inactive: 0.017.

On to ARID4B (UniProt Q4LE39), for which the log2 fold change is inactive: 0.032.

For ARAF (UniProt P10398), the log2 fold change is inactive: 0.022.

With APAF1 (UniProt O14727), the log2 fold change is inactive: 0.025.

ARFGAP3 (UniProt Q9NP61): the log2 fold change is inactive: -0.007.

Turning to ARHGAP21 (UniProt Q5T5U3), the log2 fold change is inactive: -0.036.

Regarding APMAP (UniProt Q9HDC9), the log2 fold change is inactive: -0.01.

For AP5M1 (UniProt Q9H0R1), the log2 fold change is inactive: 0.011.

For APOBEC3C (UniProt Q9NRW3), the log2 fold change was inactive: 0.

In the case of APOC1 (UniProt P02654), the log2 fold change was inactive: 0.01.

Take ARFIP1 (UniProt P53367): the log2 fold change was inactive: -0.013.

Compound in the next test: Cn1cc(-c2ccc3c(c2)CCN3C(=O)Cc2cccc(C(F)(F)F)c2)c2c(N)ncnc21
The test is described as above. The essentials:
as §1
With ASAP1 isoform 2 (UniProt Q9ULH1), the log2 fold change is inactive: 0.057.

Turning to APOBEC3G (UniProt Q9HC16), the log2 fold change is inactive: 0.173.

With AP5Z1 (UniProt O43299), the log2 fold change is inactive: 0.013.

ARIH1 (UniProt Q9Y4X5): the log2 fold change is inactive: -0.015.

For ARHGEF10 (UniProt O15013), the log2 fold change was inactive: -0.12.

As to APOOL (UniProt Q6UXV4), the log2 fold change was inactive: -0.03.

In the case of ARFGEF2 (UniProt Q9Y6D5), the log2 fold change is inactive: -0.003.

On to ARRDC1 (UniProt Q8N5I2), for which the log2 fold change is inactive: 0.039.

Take ARID2 (UniProt Q68CP9): the log2 fold change is inactive: 0.03.

For the target ARV1 (UniProt Q9H2C2), the log2 fold change was inactive: -0.043.

For APTX (UniProt Q7Z2E3), the log2 fold change was inactive: -0.06.

APIP (UniProt Q96GX9): the log2 fold change is inactive: -0.061.

ARMCX3 (UniProt Q9UH62): the log2 fold change is inactive: 0.067.

Regarding ARSA (UniProt P15289), the log2 fold change is inactive: 0.062.

Take ARHGAP18 (UniProt Q8N392): the log2 fold change was inactive: -0.02.

As for APLP2 (UniProt Q06481), the log2 fold change was inactive: 0.044.

Consider AP4S1 (UniProt Q9Y587), for which the log2 fold change is inactive: 0.012.

For ARL6IP1 (UniProt Q15041), the log2 fold change was inactive: 0.007.

As for ARHGAP5 (UniProt Q13017), the log2 fold change is inactive: 0.021.

Take APPL1 (UniProt Q9UKG1): the log2 fold change is inactive: 0.031.

Take ARID1B isoform 3 (UniProt Q8NFD5): the log2 fold change was inactive: 0.032.

Regarding ARHGEF11 isoform 2 (UniProt O15085), the log2 fold change is inactive: -0.004.

ARFGEF1 (UniProt Q9Y6D6): the log2 fold change is inactive: 0.022.

Take ARID4B (UniProt Q4LE39): the log2 fold change is inactive: 0.024.

With ARAF (UniProt P10398), the log2 fold change is inactive: 0.02.

APAF1 (UniProt O14727): the log2 fold change is inactive: 0.073.

Regarding ARFGAP3 (UniProt Q9NP61), the log2 fold change was inactive: -0.022.

On to ARHGAP21 (UniProt Q5T5U3), for which the log2 fold change is inactive: 0.017.

For APMAP (UniProt Q9HDC9), the log2 fold change is inactive: 0.093.

For AP5M1 (UniProt Q9H0R1), the log2 fold change is inactive: 0.029.

Consider APOBEC3C (UniProt Q9NRW3), for which the log2 fold change was inactive: 0.042.

With APOC1 (UniProt P02654), the log2 fold change was inactive: -0.046.

On to ARFIP1 (UniProt P53367), for which the log2 fold change was inactive: 0.082.
